# Source: the supplement of paper PMC8728848
# The other results are listed elsewhere or left out.
# Tests used:
# Assay in all cases: glycan array binding signal (z-score within array); higher = stronger binding
# Details in all cases: glycan notation: IUPAC condensed, linker removed; mutation: E321K
# [1] = molecular target: Gal(b1-2)Gal
# Outline: (§1)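 Glycan array data were curated from 3228 arrays in the Consortium for Functional Glycomics database and kept only where the protein sequence was available. Glycan names were converted to IUPAC-condensed notation, and columns mapping to the same glycan were averaged. The binding signal is a within-array Z-score, averaged across arrays of the same protein sequence at different concentrations or buffers and across linkers. Negative Z-scores can be read as non-binding.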
# [2] = molecular target: Gal(b1-3)Gal
# Outline: as §1
# [3] = molecular target: Gal(b1-3)Gal(b1-4)GlcNAc
# Outline: as §1
# [4] = molecular target: Gal(b1-3)GalNAc
# Outline: as §1
# [5] = molecular target: Gal(b1-3)GalNAc(b1-3)Gal(a1-4)Gal(b1-4)Glc
# Outline: as §1
# [6] = molecular target: Gal(b1-3)GalNAc(b1-4)Gal(b1-4)Glc
# Outline: as §1
# [7] = molecular target: Gal(b1-3)GalNAc(b1-4)[Neu5Ac(a2-3)]Gal(b1-4)Glc
# Outline: as §1
# [8] = molecular target: Gal(b1-3)GlcNAc
# Outline: as §1
# [9] = molecular target: Gal(b1-3)GlcNAc(b1-2)Man(a1-3)[Gal(b1-3)GlcNAc(b1-2)Man(a1-6)]Man(b1-4)GlcNAc(b1-4)GlcNAc
# Outline: as §1
# [10] = molecular target: Gal(b1-3)GlcNAc(b1-3)Gal(b1-3)GlcNAc
# Outline: as §1
# [11] = molecular target: Gal(b1-3)GlcNAc(b1-3)Gal(b1-4)Glc
# Outline: as §1
# [12] = molecular target: Gal(b1-3)GlcNAc(b1-3)Gal(b1-4)GlcNAc
# Outline: as §1
# [13] = molecular target: Gal(b1-3)[Fuc(a1-4)]GlcNAc
# Outline: as §1
# [14] = molecular target: Gal(b1-3)[Fuc(a1-4)]GlcNAc(b1-3)Gal(b1-3)[Fuc(a1-4)]GlcNAc
# Outline: as §1
# [15] = molecular target: Gal(b1-3)[Fuc(a1-4)]GlcNAc(b1-3)Gal(b1-4)GlcNAc
# Outline: as §1
# [16] = molecular target: Gal(b1-3)[Fuc(a1-4)]GlcNAc(b1-3)Gal(b1-4)[Fuc(a1-3)]GlcNAc
# Outline: as §1
# [17] = molecular target: Gal(b1-3)[GlcNAc(b1-6)]GalNAc
# Outline: as §1
# [18] = molecular target: Gal(b1-3)[Neu5Ac(a2-6)]GalNAc
# Outline: as §1
# [19] = molecular target: Gal(b1-3)[Neu5Ac(a2-6)]GlcNAc(b1-6)Gal(b1-4)Glc
# Outline: as §1
# [20] = molecular target: Gal(b1-3)[Neu5Ac(b2-6)]GalNAc
# Outline: as §1
# [21] = molecular target: Gal(b1-4)GalNAc(a1-3)[Fuc(a1-2)]Gal(b1-4)GlcNAc
# Outline: as §1
# [22] = molecular target: Gal(b1-4)GalNAc(b1-3)[Fuc(a1-2)]Gal(b1-4)GlcNAc
# Outline: as §1
# [23] = molecular target: Gal(b1-4)Glc
# Outline: as §1
# [24] = molecular target: Gal(b1-4)Glc6S
# Outline: as §1
# [25] = molecular target: Gal(b1-4)GlcNAc
# Outline: as §1
# [26] = molecular target: Gal(b1-4)GlcNAc(a1-6)Gal(b1-4)GlcNAc
# Outline: as §1
# [27] = molecular target: Gal(b1-4)GlcNAc(b1-2)Man(a1-3)[Gal(b1-4)GlcNAc(b1-2)Man(a1-6)]Man(b1-4)GlcNAc(b1-4)GlcNAc
# Outline: as §1
# [28] = molecular target: Gal(b1-4)GlcNAc(b1-3)Gal(b1-3)GlcNAc
# Outline: as §1
# [29] = molecular target: Gal(b1-4)GlcNAc(b1-3)Gal(b1-4)Glc
# Outline: as §1
# [30] = molecular target: Gal(b1-4)GlcNAc(b1-3)Gal(b1-4)GlcNAc
# Outline: as §1
# [31] = molecular target: Gal(b1-4)GlcNAc(b1-3)Gal(b1-4)GlcNAc(b1-3)Gal(b1-4)GlcNAc
# Outline: as §1
# [32] = molecular target: Gal(b1-4)GlcNAc(b1-3)Gal(b1-4)[Fuc(a1-3)]GlcNAc(b1-3)Gal(b1-4)[Fuc(a1-3)]GlcNAc
# Outline: as §1
# [33] = molecular target: Gal(b1-4)GlcNAc(b1-3)GalNAc
# Outline: as §1
# [34] = molecular target: Gal(b1-4)GlcNAc(b1-3)[Gal(b1-4)GlcNAc(b1-6)]Gal(b1-4)GlcNAc
# Outline: as §1
# [35] = molecular target: Gal(b1-4)GlcNAc(b1-3)[GlcNAc(b1-6)]Gal(b1-4)GlcNAc
# Outline: as §1
# [36] = molecular target: Gal(b1-4)GlcNAc(b1-6)Gal(b1-4)GlcNAc
# Outline: as §1
# [37] = molecular target: Gal(b1-4)GlcNAc(b1-6)Gal(b1-4)GlcNAc(b1-6)GalNAc
# Outline: as §1
# [38] = molecular target: Gal(b1-4)GlcNAc(b1-6)GalNAc
# Outline: as §1
# [39] = molecular target: Gal(b1-4)GlcNAc(b1-6)[Gal(b1-3)]GalNAc
# Outline: as §1
# [40] = molecular target: Gal3S(b1-3)GalNAc
# Outline: as §1
# [41] = molecular target: Gal3S(b1-3)GlcNAc
# Outline: as §1
# [42] = molecular target: Gal3S(b1-3)[Fuc(a1-4)]GlcNAc
# Outline: as §1
# [43] = molecular target: Gal3S(b1-4)Glc
# Outline: as §1
# [44] = molecular target: Gal3S(b1-4)Glc6S
# Outline: as §1
# [45] = molecular target: Gal3S(b1-4)GlcNAc
# Outline: as §1
# [46] = molecular target: Gal3S(b1-4)GlcNAc6S
# Outline: as §1
# [47] = molecular target: Gal3S(b1-4)[Fuc(a1-3)]Glc
# Outline: as §1
# [48] = molecular target: Gal3S4S(b1-4)GlcNAc
# Outline: as §1
# [49] = molecular target: Gal3S6S(b1-4)GlcNAc
# Outline: as §1
# [50] = molecular target: Gal3S6S(b1-4)GlcNAc6S
# Outline: as §1
# [51] = molecular target: Gal4S(b1-4)GlcNAc
# Outline: as §1
# [52] = molecular target: Gal4S6S(b1-4)GlcNAc
# Outline: as §1
# [53] = molecular target: Gal6S(b1-4)Glc
# Outline: as §1
# [54] = molecular target: Gal6S(b1-4)Glc6S
# Outline: as §1
# [55] = molecular target: Gal6S(b1-4)GlcNAc
# Outline: as §1
# [56] = molecular target: Gal6S(b1-4)GlcNAc6S
# Outline: as §1
# [57] = molecular target: GalNAc(a1-3)Gal
# Outline: as §1
# [58] = molecular target: GalNAc(a1-3)GalNAc
# Outline: as §1
# [59] = molecular target: GalNAc(b1-3)Gal
# Outline: as §1
# [60] = molecular target: GalNAc(b1-3)Gal(a1-4)Gal(b1-4)GlcNAc
# Outline: as §1
# [61] = molecular target: GalNAc(b1-3)GalNAc
# Outline: as §1
# [62] = molecular target: GalNAc(b1-4)GlcNAc
# Outline: as §1
# [63] = molecular target: Glc(a1-4)Glc
# Outline: as §1
# [64] = molecular target: Glc(a1-6)Glc(a1-6)Glc
# Outline: as §1
# [65] = molecular target: Glc(b1-4)Glc
# Outline: as §1
# [66] = molecular target: Glc(b1-6)Glc
# Outline: as §1
# [67] = molecular target: GlcA(b1-3)Gal
# Outline: as §1
# [68] = molecular target: GlcA(b1-3)GlcNAc
# Outline: as §1
# [69] = molecular target: GlcA(b1-6)Gal
# Outline: as §1
# [70] = molecular target: GlcNAc(a1-3)Gal(b1-4)GlcNAc
# Outline: as §1
# [71] = molecular target: GlcNAc(a1-6)Gal(b1-4)GlcNAc
# Outline: as §1
# [72] = molecular target: GlcNAc(b1-2)Gal(b1-3)GalNAc
# Outline: as §1
# [73] = molecular target: GlcNAc(b1-2)Man(a1-3)[GlcNAc(b1-2)Man(a1-6)]Man(b1-4)GlcNAc(b1-4)GlcNAc
# Outline: as §1
# [74] = molecular target: GlcNAc(b1-3)Gal
# Outline: as §1
# [75] = molecular target: GlcNAc(b1-3)Gal(b1-3)GalNAc
# Outline: as §1
binder,measurement,setting,value
Surfactant Protein D (Human); Neck + Carbohydrate Recognition Domain (NCRD) (Homo sapiens) (protein) MLLFLLSALVLLTQPLGYLEAEMKTYSHRTMPSACTLVMCSSVESGLPGRDRDGREGPRGEKGDPGLPGAAGQAGMPGQAGPVGPKGDNGSVGEPGPKGDTGPSGPPGPPGVPGPAGREGALGKQGNIGPQGKPGPKGEAGPKGEVGAPGMQGSAGARGLAGPKGERGVPGERGVPGNTGAAGSAGAMGPQGSPGARGPPGLKGDKGIPGDKGAKGESGLPDVASLRQQVEALQGQVQHLQAAFSQYKKVELFPNGQSVGEKIFKTAQFVKPFTEAQLLCTQAGGQLASPRSAAENAALQQLVVAKNEAAFLSMTDSKTEGKFTYPTGESLVYSNWAPGKPNDDGGSEDCVEIFTNGKWNDRACGEKRLVVCEF,glycan array binding signal (z-score),[1],-1.06
same,glycan array binding signal (z-score),[2],-0.54
same,glycan array binding signal (z-score),[3],-0.429
same,glycan array binding signal (z-score),[4],-0.535
same,glycan array binding signal (z-score),[5],-0.839
same,glycan array binding signal (z-score),[6],-0.012
same,glycan array binding signal (z-score),[7],1.01
same,glycan array binding signal (z-score),[8],-0.412
same,glycan array binding signal (z-score),[9],-0.892
same,glycan array binding signal (z-score),[10],-0.483
same,glycan array binding signal (z-score),[11],-0.379
same,glycan array binding signal (z-score),[12],-0.528
same,glycan array binding signal (z-score),[13],0.236
same,glycan array binding signal (z-score),[14],0.658
same,glycan array binding signal (z-score),[15],0.755
same,glycan array binding signal (z-score),[16],-0.661
same,glycan array binding signal (z-score),[17],-0.322
same,glycan array binding signal (z-score),[18],-0.505
same,glycan array binding signal (z-score),[19],-0.225
same,glycan array binding signal (z-score),[20],-0.879
same,glycan array binding signal (z-score),[21],-0.87
same,glycan array binding signal (z-score),[22],-0.709
same,glycan array binding signal (z-score),[23],-0.968
same,glycan array binding signal (z-score),[24],0.006
same,glycan array binding signal (z-score),[25],-0.591
same,glycan array binding signal (z-score),[26],1.84
same,glycan array binding signal (z-score),[27],-0.964
same,glycan array binding signal (z-score),[28],-0.871
same,glycan array binding signal (z-score),[29],-0.541
same,glycan array binding signal (z-score),[30],0.273
same,glycan array binding signal (z-score),[31],-0.186
same,glycan array binding signal (z-score),[32],0.182
same,glycan array binding signal (z-score),[33],-0.758
same,glycan array binding signal (z-score),[34],-1.08
same,glycan array binding signal (z-score),[35],-0.379
same,glycan array binding signal (z-score),[36],-0.37
same,glycan array binding signal (z-score),[37],0.372
same,glycan array binding signal (z-score),[38],0.897
same,glycan array binding signal (z-score),[39],-0.831
same,glycan array binding signal (z-score),[40],0.265
same,glycan array binding signal (z-score),[41],0.454
same,glycan array binding signal (z-score),[42],1.02
same,glycan array binding signal (z-score),[43],1.19
same,glycan array binding signal (z-score),[44],-0.079
same,glycan array binding signal (z-score),[45],0.351
same,glycan array binding signal (z-score),[46],1.49
same,glycan array binding signal (z-score),[47],1.34
same,glycan array binding signal (z-score),[48],-0.432
same,glycan array binding signal (z-score),[49],2.54
same,glycan array binding signal (z-score),[50],0.123
same,glycan array binding signal (z-score),[51],0.208
same,glycan array binding signal (z-score),[52],2.18
same,glycan array binding signal (z-score),[53],0.414
same,glycan array binding signal (z-score),[54],2.78
same,glycan array binding signal (z-score),[55],0.536
same,glycan array binding signal (z-score),[56],1.8
same,glycan array binding signal (z-score),[57],0.898
same,glycan array binding signal (z-score),[58],-0.701
same,glycan array binding signal (z-score),[59],-0.962
same,glycan array binding signal (z-score),[60],-0.999
same,glycan array binding signal (z-score),[61],0.36
same,glycan array binding signal (z-score),[62],0.233
same,glycan array binding signal (z-score),[63],-0.276
same,glycan array binding signal (z-score),[64],-1.22
same,glycan array binding signal (z-score),[65],-1.06
same,glycan array binding signal (z-score),[66],-0.245
same,glycan array binding signal (z-score),[67],-0.788
same,glycan array binding signal (z-score),[68],-0.699
same,glycan array binding signal (z-score),[69],-0.371
same,glycan array binding signal (z-score),[70],-0.533
same,glycan array binding signal (z-score),[71],1.09
same,glycan array binding signal (z-score),[72],-0.303
same,glycan array binding signal (z-score),[73],-0.307
same,glycan array binding signal (z-score),[74],-0.749
same,glycan array binding signal (z-score),[75],1.22

# Retrieved one by one from the list above:
binder,measurement,setting,value
Surfactant Protein D (Human); Neck + Carbohydrate Recognition Domain (NCRD) (Homo sapiens) (protein) MLLFLLSALVLLTQPLGYLEAEMKTYSHRTMPSACTLVMCSSVESGLPGRDRDGREGPRGEKGDPGLPGAAGQAGMPGQAGPVGPKGDNGSVGEPGPKGDTGPSGPPGPPGVPGPAGREGALGKQGNIGPQGKPGPKGEAGPKGEVGAPGMQGSAGARGLAGPKGERGVPGERGVPGNTGAAGSAGAMGPQGSPGARGPPGLKGDKGIPGDKGAKGESGLPDVASLRQQVEALQGQVQHLQAAFSQYKKVELFPNGQSVGEKIFKTAQFVKPFTEAQLLCTQAGGQLASPRSAAENAALQQLVVAKNEAAFLSMTDSKTEGKFTYPTGESLVYSNWAPGKPNDDGGSEDCVEIFTNGKWNDRACGEKRLVVCEF,glycan array binding signal (z-score),[72],-0.303
same,glycan array binding signal (z-score),[65],-1.06
same,glycan array binding signal (z-score),[38],0.897
